Experimental data as given in PubChem BioAssay AID1671190 (National Center for Advancing Translational Sciences (NCATS), 2021).
Among all 580,000 compounds or so, about 6,100 (1.1%) were called active. This list was built around the results that the source calls inconclusive (neither active nor inactive); the mix of calls is not that of the screen. Calls come from the whole dose curve; as a rule, active = well fitted inhibition curve with a large enough effect; inconclusive = small, poorly fitted or top-dose-only effect, or another doubt; inactive = no such curve, though single readings can be large or run the other way. Potencies of inconclusive entries are doubtful fits and often do not repeat.

Chains of the proteins cited; added tags and fusions are not shown. Lines headed by an entry give the natural chain unless they say otherwise; changes in a name come on top.
UniProt P18054: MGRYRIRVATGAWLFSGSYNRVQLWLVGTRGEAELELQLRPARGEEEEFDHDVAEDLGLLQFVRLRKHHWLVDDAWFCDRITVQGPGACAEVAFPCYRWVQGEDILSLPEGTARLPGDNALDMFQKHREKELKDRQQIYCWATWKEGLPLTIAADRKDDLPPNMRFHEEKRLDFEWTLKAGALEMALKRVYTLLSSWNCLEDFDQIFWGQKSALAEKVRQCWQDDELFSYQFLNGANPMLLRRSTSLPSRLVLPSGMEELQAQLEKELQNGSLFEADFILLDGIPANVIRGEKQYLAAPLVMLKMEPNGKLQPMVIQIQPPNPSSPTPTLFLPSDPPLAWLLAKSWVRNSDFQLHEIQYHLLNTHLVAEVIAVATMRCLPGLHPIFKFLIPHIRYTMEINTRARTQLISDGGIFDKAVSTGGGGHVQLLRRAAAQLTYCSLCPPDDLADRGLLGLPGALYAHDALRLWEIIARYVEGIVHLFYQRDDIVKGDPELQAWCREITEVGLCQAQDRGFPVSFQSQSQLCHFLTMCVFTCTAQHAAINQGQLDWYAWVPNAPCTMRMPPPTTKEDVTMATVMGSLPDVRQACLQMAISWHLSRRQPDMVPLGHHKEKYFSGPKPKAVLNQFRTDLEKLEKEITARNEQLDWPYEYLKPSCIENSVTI

Target: Polyunsaturated fatty acid lipoxygenase ALOX12 (Homo sapiens) (UniProt P18054)
Test: Primary qHTS assay for inhibitors of human arachidonate 12S-lipoxygenase (ALOX12): Round 2
Settings: purified 12hLO, xylenol orange hydroperoxide absorbance; series mostly up to 108 µM
How it was run: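 Hydroperoxide product was detected by ferrous iron/xylenol orange as the 573 to 405 nm absorbance ratio. Arachidonic acid at 40 uM (final) was turned over for 30 min at room temperature by 150 nM human 12hLO, pH 7.0 Hepes buffer, after 15 min compound preincubation.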
Potency is the fitted concentration of half-maximal effect.

Structure (SMILES) | Potency
COc1ccccc1N/N=C1\COC(C)(C)CC1=O | inconclusive: 44.7 µM [inhibitor, partial curve, poor fit]
Cc1cccc(Cn2c(SCC(=O)c3ccccc3)nc3c2c(=O)[nH]c(=O)n3C)c1 | inconclusive: 89.1 µM [inhibitor, partial curve, poor fit]
Cc1nc2n(c(=O)c1CCN1CCC(c3noc4cc(F)ccc34)CC1)CCCC2 | inconclusive: 15.3 µM [inhibitor, partial curve, poor fit]
COc1ccccc1-c1cc2c(Nc3ccc(N4CCN(C)CC4)cc3)nccc2[nH]1 | inconclusive: 100 µM [inhibitor, single point]
CN1Cc2ncnc(NCc3cccs3)c2CN(c2ccccc2)C1=O | inactive
COc1ccc(Cn2nc(-c3ccccc3)c(N3CCCCC3)cc2=O)cc1 | inconclusive: 56.2 µM [inhibitor, partial curve, poor fit]
O=C(O)CCc1ccccn1 | inconclusive: 3.16 µM [inhibitor, full curve]
O=S(=O)(c1cccc(-c2n[nH]c(=S)o2)c1)N1CCOCC1 | inconclusive: 56.2 µM [inhibitor, partial curve, poor fit]
Cc1ccc(C(=O)NCCNc2ncc(C(F)(F)F)cc2Cl)cc1[N+](=O)[O-] | inactive
N#C/C(=C\c1ccc(-c2ccccc2Cl)o1)c1ccc(Cl)cc1 | inactive
Fc1ccc(NC(=S)NCCSc2ccc(Cl)cc2)cc1Cl | inconclusive: 50.1 µM [inhibitor, partial curve, poor fit]
COc1ccc([S+](=O)([O-])c2nnn3c2nc(N2CCC(F)CC2)c2ccccc23)cc1 | inconclusive: 3.16 µM [inhibitor, full curve, poor fit]
Fc1ccc(Nc2ncnc3ccc(-c4ccoc4)cc23)cc1 | inconclusive: 7.08 µM [inhibitor, full curve, poor fit]
CCOc1cc(CNCCc2ccc(S(N)(=O)=O)cc2)cc(Cl)c1OCc1ccccc1 | inconclusive: 50.1 µM [inhibitor, partial curve, poor fit]
CCC(C)(C(=O)NC1CCCCC1)N(Cc1cccs1)C(=O)CNC(=O)c1ccccc1 (centres undefined) | inactive
Cc1ccc(OCC(O)CN2CCN(CCO)CC2)c(C)c1 (centres undefined) | inconclusive: 100 µM [inhibitor, single point]
CC(C)c1nc(NCC2CCCO2)c(C#N)c2c1COC(C)(C)C2 (centres undefined) | inactive
O=C(/C=C/c1cccnc1)NCCc1ccc(F)cc1 | inactive
CCCNC(=O)c1nc(C)n(-c2cc(Cl)cc(Cl)c2)n1 | inconclusive: 44.7 µM [inhibitor, single point]

Quoted from the results shown for reference:
Structure (SMILES) | Potency
O=C(O)CCc1ccccn1 | inconclusive: 3.16 µM [inhibitor, full curve]
O=S(=O)(c1cccc(-c2n[nH]c(=S)o2)c1)N1CCOCC1 | inconclusive: 56.2 µM [inhibitor, partial curve, poor fit]
